The values that follow come from PMC4619884.

By UniProt entry, the sequences of proteins in these tests, tags left out.
UniProt P47746: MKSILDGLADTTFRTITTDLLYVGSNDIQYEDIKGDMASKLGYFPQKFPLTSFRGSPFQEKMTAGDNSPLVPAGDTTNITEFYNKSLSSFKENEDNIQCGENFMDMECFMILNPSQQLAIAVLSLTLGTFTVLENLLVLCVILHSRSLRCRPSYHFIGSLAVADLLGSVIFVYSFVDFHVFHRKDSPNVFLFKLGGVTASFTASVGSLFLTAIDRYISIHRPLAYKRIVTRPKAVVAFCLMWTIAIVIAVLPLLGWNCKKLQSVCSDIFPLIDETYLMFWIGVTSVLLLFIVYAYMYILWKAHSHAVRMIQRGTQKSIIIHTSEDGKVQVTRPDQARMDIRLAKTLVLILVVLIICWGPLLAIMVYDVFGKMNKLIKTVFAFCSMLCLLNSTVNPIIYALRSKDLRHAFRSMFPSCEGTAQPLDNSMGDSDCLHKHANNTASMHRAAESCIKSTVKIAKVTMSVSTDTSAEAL
UniProt Q5SQX6: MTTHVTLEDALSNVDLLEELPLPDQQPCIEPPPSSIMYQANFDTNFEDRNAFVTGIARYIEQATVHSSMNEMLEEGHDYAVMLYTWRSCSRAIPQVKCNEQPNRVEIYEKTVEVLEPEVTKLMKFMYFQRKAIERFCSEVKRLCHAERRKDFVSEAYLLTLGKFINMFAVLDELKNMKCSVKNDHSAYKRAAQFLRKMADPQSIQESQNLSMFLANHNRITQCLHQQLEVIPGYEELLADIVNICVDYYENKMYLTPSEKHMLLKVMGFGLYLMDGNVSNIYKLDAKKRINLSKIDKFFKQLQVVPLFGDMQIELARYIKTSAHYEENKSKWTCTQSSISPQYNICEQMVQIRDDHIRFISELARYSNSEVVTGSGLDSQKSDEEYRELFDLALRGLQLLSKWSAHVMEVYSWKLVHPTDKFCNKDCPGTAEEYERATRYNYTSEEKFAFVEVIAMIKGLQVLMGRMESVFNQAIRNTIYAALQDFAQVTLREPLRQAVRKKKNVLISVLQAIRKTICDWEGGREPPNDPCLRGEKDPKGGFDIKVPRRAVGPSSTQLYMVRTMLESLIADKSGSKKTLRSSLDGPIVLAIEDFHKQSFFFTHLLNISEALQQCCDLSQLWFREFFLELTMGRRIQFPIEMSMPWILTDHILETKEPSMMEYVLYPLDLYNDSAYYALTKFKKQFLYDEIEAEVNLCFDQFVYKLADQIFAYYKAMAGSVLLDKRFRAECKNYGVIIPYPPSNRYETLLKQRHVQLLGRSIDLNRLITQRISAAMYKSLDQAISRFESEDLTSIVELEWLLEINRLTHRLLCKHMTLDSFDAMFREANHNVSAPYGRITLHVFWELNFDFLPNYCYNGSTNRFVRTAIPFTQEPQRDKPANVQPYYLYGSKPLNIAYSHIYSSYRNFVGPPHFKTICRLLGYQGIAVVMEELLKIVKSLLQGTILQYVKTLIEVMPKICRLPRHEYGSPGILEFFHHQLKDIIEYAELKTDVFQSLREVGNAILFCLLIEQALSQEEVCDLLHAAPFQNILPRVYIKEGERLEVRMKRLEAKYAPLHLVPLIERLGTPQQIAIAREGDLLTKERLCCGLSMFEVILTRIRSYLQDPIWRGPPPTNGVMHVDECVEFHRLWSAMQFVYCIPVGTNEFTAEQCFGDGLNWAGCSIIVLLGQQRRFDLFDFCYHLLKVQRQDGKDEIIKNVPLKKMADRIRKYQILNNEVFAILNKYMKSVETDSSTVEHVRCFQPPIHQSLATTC

Like-named read-outs stand apart in the source and are kept apart here. Results are given in words; binding and its absence hold for the method and conditions named. In cells and extracts the contact can be indirect. Some results given as binding are weak or reduced against the parent protein; the word gives no strength.

Assay [1] has as its target EGFP-tagged CB1 receptor (cannabinoid type 1 receptor), expressed from rAAV in mouse cortex (UniProt P47746). In words: co-IP; GFP-nanotrap beads on Na-cholate-solubilised cortical membrane fractions of mice expressing CB1-EGFP or GFP (control), at least 2 h at 4°C; immunoblot. For orientation: In western blotting, separated proteins are transferred to a membrane and probed.

The target of assay [2] is EGFP-tagged CB1 receptor, transfected in HEK293 cells (UniProt P47746). In words: co-IP; GFP-nanotrap on HEK293 cells transfected with CB1-EGFP or GFP alone, solubilised with Na-cholate; immunoblot for endogenous WAVE1.
Assay [3] concerns the target endogenous CB1 receptor (cannabinoid type 1 receptor) of mouse cortex (mouse (endogenous in cortex)) (UniProt P47746). In words: co-IP; protein A/G PLUS agarose beads coupled with rabbit α-CB1 on solubilised cortical lysates of wild-type or CB1-/- mice, overnight at 4°C; immunoblot for WAVE1.
The target in assay [4] is EGFP-tagged CB1 receptor (cannabinoid type 1 receptor), expressed from rAAV in mouse cortex (UniProt P47746). In words: co-IP; GFP-nanotrap beads on Na-cholate-solubilised cortical membrane fractions of mice expressing CB1-EGFP or GFP (control), at least 2 h at 4°C; immunoblot. The source holds these as a separate data set.

On to “endogenous CB1 receptor (cannabinoid type 1 receptor) of mouse cortex (from UniProt P47746 1-473)”, for which the binding result in assay [1] was “binds”.
On to “WAVE1, endogenous in HEK293 cells (from UniProt Q92558 1-559)”, for which the binding result in assay [2] was “binds”.
For the molecule “cytoplasmic FMR1-interacting protein 2 (CYFIP2), endogenous in mouse cortex (from UniProt Q5SQX6 1-1253)”, in assay [1], the binding entry is on record as “binds”.

B1: Wiskott-Aldrich syndrome protein-family verprolin-homologous protein 1 (WAVE1), endogenous in mouse cortex (protein, UniProt Q8R5H6 1-559)
chain: MPLVKRNIDPRHLCHTALPRGIKNELECVTNISLANIIRQLSSLSKYAEDIFGELFNEAHSFSFRVNSLQERVDRLSVSVTQLDPKEEELSLQDITMRKAFRSSTIQDQQLFDRKTLPIPLQETYDVCEQPPPLNILTPYRDDGKEGLKFYTNPSYFFDLWKEKMLQDTEDKRKEKRKQKQKNLDRPHEPEKVPRAPHDRRREWQKLAQGPELAEDDADLLHKHIEVANGPASHYETRPQTYVDHMDGSYSLSALPFSQMSELLTRAEERVLVRPHEPPPPPPMHGAGDAKPTPTCISSATGLIENRPQSPAAGRTPVFVSPTPPPPPPPLPSALSTSSLRASMTSTPPPPVPPPPPPPATALQAPAVPPPPAPLQIAPGVLHPAPPPIAPPLVQPSPPVARAAPVCETVPVHPLPQGEVQGLPPPPPPPPLPPPGIRPSSPVAVAALAHPPSGLHPAPSTAPGPHAPLMPPSPPSQVLPASEPKRHPSTLPVISDARSVLLEAIRKGIQLRKVEEQREQEAKHERIENDVATILSRRIAVEYSDSEDDSEFDEVDWLE
Consider B1, for which the binding result in assay [3] and in assay [4] was “binds” in each case.

B2: NCK-associated protein 1 (NCKAP1), endogenous in mouse cortex (protein, UniProt P28660 1-1128)
chain: MSRSVLQPSQQKLAEKLTILNDRGVGMLTRLYNIKKACGDPKAKPSYLIDKNLESAVKFIVRKFPAVETRNNNQQLAQLQKEKSEILKNLALYYFTFVDVMEFKDHVCDLLNTIDVCQVFFDITVNFDLTKNYLDLTVTYTTLMILLSRIEERKAIIGLYNYAHEMTHGASDREYPRLGQMIVDYENPLKKMMEEFVPHSKSLSDALISLQMVYPRRNLSADQWRNAQLLSLISAPSTMLNPAQSDTMPCEYLSLDAMEKWIIFGFILCHGMLNTEATALNLWKLALQSSSCLSLFRDEVFHIHKAAEDLFVNIRGYNKRINDIRECKEAAVSHAGSMHRERRKFLRSALKELATVLSDQPGLLGPKALFVFMALSFARDEIIWLLRHADNMPKKSADDFIDKHIAELIFYMEELRAHVRKYGPVMQRYYVQYLSGFDAVVLNELVQNLSVCPEDESIIMSSFVNTMTSLSVKQVEDGEVFDFRGMRLDWFRLQAYTSVSKASLSLADHRELGKMMNTIIFHTKMVDSLVEMLVETSDLSIFCFYSRAFEKMFQQCLELPSQSRYSIAFPLLCTHFMSCTHELCPEERHHIGDRSLSLCNMFLDEMAKQARNLITDICTEQCTLSDQLLPKHCAKTISQAVNKKSKKQTGKKGEPEREKPGVESMRKNRLVVTNLDKLHTALSELCFSINYVPNMAVWEHTFTPREYLTSHLEIRFTKSIVGMTMYNQATQEIAKPSELLTSVRAYMTVLQSIENYVQIDITRVFNNVLLQQTQHLDSHGEPTITSLYTNWYLETLLRQVSNGHIAYFPAMKAFVNLPTENELTFNAEEYSDISEMRSLSELLGPYGMKFLSESLMWHISSQVAELKKLVVENVDVLTQMRTSFDKPDQMAALFKRLSSVDSVLKRMTIIGVILSFRSLAQEALRDVLSYHIPFLVSSIEDFKDHIPRETDMKVAMNVYELSSAAGLPCEIDPALVVALSSQKSENISPEEEYKIACLLMVFVAVSLPTLASNVMSQYSPAIEGHCNNIHCLAKAINQIAAALFTIHKGSIEDRLKEFLALASSSLLKIGQETDKTTTRNRESVYLLLDMIVQESPFLTMDLLESCFPYVLLRNAYHAVYKQSVTSSA
Consider B2, for which, in assay [4], the binding result is given as “binds”.
